Measurements reported in PubChem BioAssay AID1487 (National Center for Advancing Translational Sciences (NCATS), 2009).
The other results are listed elsewhere or left out. The main result of the screen is listed elsewhere. These columns were measured beside it and carry no call. Most of these compounds were active or inconclusive in the main read-out, so they are no random draw. The note in brackets gives the kind of curve behind each potency; many fits are weak.

Assay: qHTS Assay for Modulators of Lamin A Splicing
Settings: HeLa LMNA splicing GFP/RFP minigene ratio, 48 h
Method in brief: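 S3 HeLa stable clones carrying a lamin A-EGFP splicing minigene plus DsRed2 were seeded at 600 cells/well in Opti-MEM with 2% FBS, pin-dosed and incubated 48 h at 37°C. Acumen cytometry (488 nm) gave the GFP/RFP total-intensity ratio.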

[1] = measured here: GFP splicing reporter channel
[2] = measured here: RFP viability control channel

SMILES | AC50 [1] | AC50 [2]
Cc1nn(CC(=O)c2ccccc2)c(=O)c2nn(-c3ccccc3F)c(C)c12 | 8.91 µM [rising, partial curve, poor fit] | –
c1ccc(CC2CCN(C(c3cccs3)c3nnnn3C3CCCC3)CC2)cc1 (stereo unspecified) | 11.2 µM [rising, single point] | 15.8 µM [rising, single point]
CN(C)C(C)(C)C#CCC(c1ccccc1)c1ccccc1 | – | 15.8 µM [rising, single point]
COc1ccc(N2CCN(CC(=O)Nc3sccc3C#N)CC2)cc1 | – | 35.5 µM [rising, single point]
CCn1c2ccccc2c2cc(NC(=O)CSc3nnc(-c4ccc(OC)cc4)n3N)ccc21 | 28.2 µM [falling, single point] | 35.5 µM [falling, single point]
O=C1CC2c3ccccc3C1C1C(=O)N(CCO)C(=O)C21 (stereo unspecified) | 4.47 µM [falling, single point] | 6.31 µM [falling, single point]
CN(CC(=O)Nc1ccc(S(=O)(=O)N2CCCC2)cc1)Cc1ccc(Cl)cc1 | 14.1 µM [rising, single point] | 12.6 µM [rising, single point]
CCOC(=O)c1sc(NC(=O)c2cccc(S(=O)(=O)N3c4ccccc4CC3C)c2)cc1C (stereo unspecified) | – | 3.55 µM [rising, single point]
O=C(c1ccc(F)cc1)C1CCN(Cc2cn[nH]c2-c2ccccc2)CC1 | – | 25.1 µM [falling, single point]
COC(=O)C1=C(C)N(Cc2ccccc2)C(=O)N[C@H]1c1cccc(F)c1 | – | 0.282 µM [falling, partial curve]
COc1ccc(-c2oc3ncn(CCN4CCOCC4)c(=N)c3c2-c2ccc(OC)cc2)cc1 | – | 14.1 µM [rising, partial curve]
Cc1cccc(NC(=O)Cn2cc(C(=O)c3ccco3)c3ccccc32)c1 | 15.8 µM [rising, single point] | 20 µM [rising, partial curve]
CN(C)/C=C(\C#N)C(=O)Nc1ccccc1 | 5.62 µM [rising, single point] | –
Cc1cccc(N2CCN(C(=O)N3CCCCC3)CC2)c1C | 5.62 µM [falling, single point] | 5.62 µM [falling, partial curve, poor fit]
Cc1ccc(C(=O)CSc2nnc(-c3ccco3)n2C)cc1 | 0.0631 µM [rising, full curve] | –
CCOC(=O)CCNC(=O)N1CCCC(C(=O)c2ccccc2SC)C1 (stereo unspecified) | – | 1.12 µM [falling, full curve, poor fit]
COCc1nn2c(N)c(C#N)cnc2c1-c1ccccc1 | – | 15.8 µM [rising, partial curve]
NC(=O)CC[C@@H]1NC(=O)[C@H](CO)NC(=O)c2cc([N+](=O)[O-])cc(I)c2NCC[C@@H](C(N)=O)NC1=O | – | 2 µM [rising, partial curve, poor fit]
COc1ccccc1N/C(N)=N/c1nc(CSc2ccc(C)cc2)cc(=O)[nH]1 | 2.51 µM [rising, full curve] | 10 µM [rising, partial curve]

SMILES | AC50 [1] | AC50 [2]
O=[N+]([O-])c1ccc(N=Nc2ccc(O)cc2O)cc1 | 0.126 µM [rising, full curve, poor fit] | 0.447 µM [rising, full curve]
CC(=O)N1CCn2c3ccc(C)cc3c3cccc1c32 | – | 35.5 µM [falling, single point]
O=S(=O)(Nc1cnc2ccccc2c1)N1CCCCCC1 | 1.78 µM [rising, full curve, poor fit] | 10 µM [rising, partial curve]
CCOC(=O)c1cc(C(=O)c2cc(Br)ccc2O)coc1=N | – | 0.355 µM [falling, full curve, poor fit]
N#Cc1ccc(OCc2nnc(SCC(=O)N3CCCc4ccccc43)n2-c2ccccc2)cc1 | – | 35.5 µM [rising, partial curve, poor fit]
O=C(NCc1ccccc1)Nc1cccn(Cc2ccc(F)cc2)c1=O | – | 10 µM [rising, partial curve, poor fit]
CCN(Cc1ccccc1)C(=O)c1ccc(SC)cc1OC | 0.0224 µM [rising, full curve, poor fit] | –
N/C(=N\OC(=O)CCCOc1ccc(Cl)cc1Cl)c1ccccn1 | – | 2.82 µM [falling, partial curve, poor fit]
CCC(Cc1ccccc1)NC(=O)CN1C(=O)CSc2ncccc21 (stereo unspecified) | – | 12.6 µM [rising, partial curve]
O=C(CN1C(=O)NC2(CCCCC2)C1=O)Nc1ccc2c(c1)CCC2 | – | 8.91 µM [rising, partial curve]
Cc1cc(Cl)cc2c1NC(=O)[C@]21[C@@H]2C(=O)N(Cc3ccccc3)C(=O)[C@@H]2[C@@H]2CCCN21 | 3.55 µM [rising, single point] | –
OCc1nc2ccccc2n1CCCOc1ccc(Br)cc1 | 12.6 µM [rising, partial curve] | 15.8 µM [rising, single point]
O=C(CNC(=S)NC(=O)c1ccc(Br)o1)c1ccccc1 | – | 7.08 µM [rising, partial curve]
NC(=O)c1ccc(C(F)(F)F)n(Cc2c(Cl)cccc2Cl)c1=O | – | 6.31 µM [falling, single point]
Cn1c(=O)c2c(nc(N3CCN(Cc4ccccc4)CC3)n2CCCc2ccccc2)n(C)c1=O | – | 35.5 µM [rising, single point]
CCOc1ccc(NC(=O)C2CCCCN2S(=O)(=O)c2ccccc2)cc1 (stereo unspecified) | 12.6 µM [rising, partial curve, poor fit] | 31.6 µM [rising, single point]
O=c1[nH]c(/C(Cl)=C/c2c(F)cccc2Cl)nc2cc(Cl)ccc12 | – | 3.16 µM [rising, partial curve]
CCN(CC(=O)Nc1ccc([N+](=O)[O-])cc1OC)CC(=O)NC(C)(C)C | 35.5 µM [rising, single point] | 35.5 µM [rising, single point]
CCOC(=O)C1(Cc2ccccc2Cl)CCN(C(=O)CCn2ccnc2C)CC1 | 28.2 µM [falling, partial curve, poor fit] | 0.00355 µM [falling, full curve, poor fit]

Four successive entries out of the list so far, quoted:
SMILES | AC50 [1] | AC50 [2]
CCOC(=O)CCNC(=O)N1CCCC(C(=O)c2ccccc2SC)C1 (stereo unspecified) | – | 1.12 µM [falling, full curve, poor fit]
COCc1nn2c(N)c(C#N)cnc2c1-c1ccccc1 | – | 15.8 µM [rising, partial curve]
NC(=O)CC[C@@H]1NC(=O)[C@H](CO)NC(=O)c2cc([N+](=O)[O-])cc(I)c2NCC[C@@H](C(N)=O)NC1=O | – | 2 µM [rising, partial curve, poor fit]
COc1ccccc1N/C(N)=N/c1nc(CSc2ccc(C)cc2)cc(=O)[nH]1 | 2.51 µM [rising, full curve] | 10 µM [rising, partial curve]

(more compounds)

SMILES | AC50 [1] | AC50 [2]
CS(=O)(=O)Nc1cccc(-c2nc(N3CCOCC3)c3ccccc3n2)c1 | – | 35.5 µM [rising, single point]
Cc1nc2ccc(S(=O)(=O)Nc3cccc(-c4nc5cccnc5s4)c3)cc2s1 | – | 8.91 µM [rising, partial curve]
Cc1cc(S(=O)(=O)NCC(c2ccco2)S(=O)(=O)c2cccs2)ccc1F (stereo unspecified) | 0.0794 µM [falling, full curve, poor fit] | 0.0708 µM [falling, full curve, poor fit]
COc1ccccc1CNC(=O)c1ccc2c(=O)n(CCCN3CCCC3=O)c(=S)[nH]c2c1 | 3.55 µM [rising, partial curve, poor fit] | –
Nc1nc(=S)[nH]c2c1C1(CCCCC1)Cc1ccccc1-2 | – | 25.1 µM [rising, single point]
Cc1ccc(SCCNC(=O)/C=C/c2ccccc2Cl)cc1 | 25.1 µM [falling, single point] | 25.1 µM [falling, single point]
O=C(c1cccc(S(=O)(=O)N2CCOCC2)c1)N(Cc1ccc(F)cc1)Cc1ccco1 | 35.5 µM [falling, single point] | 20 µM [falling, partial curve, poor fit]
COc1ccc(C(=O)Nc2cccc(C(=O)NCc3ccccc3)c2)cc1 | 7.94 µM [rising, partial curve, poor fit] | –
Cc1oc2ccc(O)c(CN3CCOCC3)c2c1C(=O)c1ccc(Cl)cc1 | – | 14.1 µM [rising, single point]
CCOc1ccccc1NC(=O)/C=C/C(N)=O | 35.5 µM [falling, single point] | 35.5 µM [falling, single point]
Cc1ccc(S(=O)(=O)Oc2ccccc2/C=N/NC(N)=S)cc1 | – | 3.16 µM [rising, single point]
O=C(Nc1cccn(Cc2c(Cl)cccc2Cl)c1=O)c1c(Cl)cccc1Cl | 20 µM [falling, partial curve, poor fit] | –
CC(C)(C(=O)c1cccnc1)c1cccnc1 | 12.6 µM [falling, single point] | 7.94 µM [falling, single point]
COc1ccccc1CNC(=O)c1ccc(-c2ccccc2Cl)o1 | – | 17.8 µM [rising, partial curve]
Cc1ccccc1-c1ccc2ncnc(N3CCOCC3)c2c1 | 1.26 µM [falling, partial curve, poor fit] | –
CCOc1nc(C#N)nc(N2CCCCC2)n1 | – | 11.2 µM [rising, single point]
NCCCCNCCCN | – | 0.891 µM [rising, full curve, poor fit]
CCn1c2ccccc2c2cc(NS(=O)(=O)c3ccccc3C)ccc21 | 20 µM [falling, partial curve] | 14.1 µM [falling, partial curve]
C[n+]1cc(C(=O)N2CCCCC2)ccc1/C=C/c1c[nH]c2ccccc12 | – | 0.158 µM [falling, partial curve]
